This is an account of results in publication PMC10957913, “GAS41 modulates ferroptosis by anchoring NRF2 on chromatin” (Nature Communications, 2024).

Chains of the proteins cited; added tags and fusions are not shown.
UniProt O95619: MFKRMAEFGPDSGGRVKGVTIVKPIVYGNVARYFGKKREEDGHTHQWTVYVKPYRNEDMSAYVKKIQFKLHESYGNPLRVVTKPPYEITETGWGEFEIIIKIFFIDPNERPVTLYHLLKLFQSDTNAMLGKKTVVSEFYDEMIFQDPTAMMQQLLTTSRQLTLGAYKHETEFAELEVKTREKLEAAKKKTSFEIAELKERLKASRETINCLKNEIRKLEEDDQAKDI

These are yes or no findings as the source states them, for the method shown. Binding seen in cells or lysates may run through a third protein. These calls come from enrichment with a bait or labelling near it, and not all partners need be listed. Tags and fused reporters may be left off the sequences shown.

This test has as its target T1, N-terminal Flag-HA-tagged NRF2 (FH-NRF2) (UniProt Q16236).
T1 sequence: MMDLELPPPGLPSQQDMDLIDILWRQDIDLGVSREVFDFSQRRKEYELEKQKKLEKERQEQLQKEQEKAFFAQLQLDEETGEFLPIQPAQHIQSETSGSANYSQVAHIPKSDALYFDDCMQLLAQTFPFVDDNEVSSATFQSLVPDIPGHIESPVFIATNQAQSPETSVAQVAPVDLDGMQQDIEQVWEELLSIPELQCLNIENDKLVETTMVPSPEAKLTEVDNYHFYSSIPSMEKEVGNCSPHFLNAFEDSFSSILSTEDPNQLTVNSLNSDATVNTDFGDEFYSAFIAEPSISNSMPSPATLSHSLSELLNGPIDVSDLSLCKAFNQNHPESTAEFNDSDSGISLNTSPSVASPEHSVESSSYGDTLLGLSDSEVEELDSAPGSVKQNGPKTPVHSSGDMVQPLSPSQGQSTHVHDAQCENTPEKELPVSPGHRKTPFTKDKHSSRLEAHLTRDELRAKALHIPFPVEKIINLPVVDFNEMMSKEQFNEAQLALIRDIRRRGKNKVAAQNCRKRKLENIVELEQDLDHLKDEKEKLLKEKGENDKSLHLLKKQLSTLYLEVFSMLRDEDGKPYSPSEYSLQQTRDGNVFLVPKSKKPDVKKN
As to the kind of experiment: affinity purification with mass spectrometry; NRF2-associated proteins purified from nuclear extraction of the FH-NRF2 H1299 stable cell line; Coomassie-stained bands cut and analyzed by mass spectrometry.

As for “GAS41 (Glioma Amplified Sequence 41), endogenous in H1299 (from UniProt O95619 1-227)”, the binding entry is recorded as “binds”.
